Measured values as given in PubChem BioAssay (NCATS).
Inconclusive results, whose numbers are uncertain, are shown with a selection of clear calls. A potency beside an inconclusive call is a rough fit, not a confirmed value. Activity calls are given as the source filed them. The call rests on the fitted dose curve; in most records, active means well fitted cell-killing curve with a large enough effect; inconclusive means small, poorly fitted or top-dose-only effect, or effect the other way; inactive means no such curve, though single readings can be large or run the other way.

Tests used:
[1] = Quantitative High-Throughput drug screen in 47 multiple myeloma cell lines against the NCATS MIPE library collection: KMS34_JCRB cell viability assay (AID 1918985); conditions: KMS34 myeloma viability, CellTiter-Glo ATP luminescence, 48 h; viability, percent of control: at 45.8 µM (top of the series); further: nearly all actives have a fitted effect of over 40% in size
Summary of the method: (§1)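 Myeloma cells (500/well) treated with MIPE 4.0 compounds for 48 h at 37 °C, 5% CO2. Viability read as ATP via CellTiter-Glo luminescence after 5 min at RT; DMSO-only wells = 100%, media-only = 0% viability.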

[2] = Quantitative High-Throughput drug screen in 47 multiple myeloma cell lines against the NCATS MIPE library collection: OCIMY7_PLB cell viability assay (AID 1918987); conditions: OCI-MY7 myeloma viability, CellTiter-Glo ATP, 48 h; viability (% of DMSO): at 45.8 µM (top of the series); further: nearly all actives have a fitted effect of over 65% in size
Summary of the method: as §1

[3] = Quantitative High-Throughput drug screen in 47 multiple myeloma cell lines against the NCATS MIPE library collection: OCIMY5_PLB cell viability assay (AID 1918988); conditions: OCI-MY5 myeloma viability, ATP luminescence, 48 h; viability, % of control: at 45.8 µM (top of the series); further: nearly all actives have a fitted effect of over 65% in size
Summary of the method: as §1

[4] = Quantitative High-Throughput drug screen in 47 multiple myeloma cell lines against the NCATS MIPE library collection: SKMM1_PLB cell viability assay (AID 1919863); conditions: SKMM1 myeloma viability, CellTiter-Glo ATP, 48 h; viability: hits give low values; further: nearly all actives have a fitted effect of over 35% in size
Summary of the method: as §1

[5] = Quantitative High-Throughput drug screen in 47 multiple myeloma cell lines against the NCATS MIPE library collection: U266_ATCC cell viability assay (AID 1919864); further: nearly all actives have a fitted effect of over 35% in size
Summary of the method: as §1

[6] = Quantitative High-Throughput drug screen in 47 multiple myeloma cell lines against the NCATS MIPE library collection: XG6_PLB cell viability assay (AID 1919865); conditions: XG6 myeloma viability, CellTiter-Glo ATP luminescence, 48 h; viability (% of control): at 45.8 µM (top of the series); further: nearly all actives have a fitted effect of over 40% in size
Summary of the method: as §1

[7] = Quantitative High-Throughput drug screen in 47 multiple myeloma cell lines against the NCATS MIPE library collection: XG1_PLB cell viability assay (AID 1919866); further: nearly all actives have a fitted effect of over 35% in size
Summary of the method: as §1

[8] = Quantitative High-Throughput drug screen in 47 multiple myeloma cell lines against the NCATS MIPE library collection: VP6_DJ cell viability assay (AID 1919867); conditions: ATP luminescence, 48 h; viability (% of DMSO): at 45.8 µM (top of the series); further: nearly all actives have a fitted effect of over 40% in size
Summary of the method: as §1

[9] = Quantitative High-Throughput drug screen in 47 multiple myeloma cell lines against the NCATS MIPE library collection: OPM1_PLB cell viability assay (AID 1918989); further: nearly all actives have a fitted effect of over 40% in size
Summary of the method: as §1
Potency means the concentration at half of the fitted maximal effect.

NCC1CCC(C(=O)O)CC1 (configuration not stated)
active: Potency [5] 5.9 µM
inconclusive: Potency [2] 0.0526 µM [rising, full curve, poor fit] | Potency [3] 23.5 µM [cytotoxic, single point] | Potency [4] 4.18 µM [cytotoxic, full curve, poor fit] | Potency [7] 0.001 µM | Potency [8] 0.0066 µM [rising, full curve, poor fit]
inactive: Potency [1] | Potency [6]

COc1ccc(-c2nc(N3CCOCC3)c3sc(CN(C)c4ncc(C(=O)NO)cn4)cc3n2)cn1
inconclusive: Potency [1] 0.0019 µM [cytotoxic, full curve] | Potency [2] 0.0066 µM [cytotoxic, partial curve, poor fit] | Potency [3] 0.0019 µM [cytotoxic, full curve] | Potency [4] 0.0033 µM [cytotoxic, full curve] | Potency [5] 0.0033 µM [cytotoxic, full curve] | Potency [6] 0.0166 µM [cytotoxic, full curve] | Potency [7] 0.0047 µM [cytotoxic, full curve]
inactive: Potency [8]

Cc1coc2c1C(=O)C(=O)c1c-2ccc2c1CCCC2(C)C
inconclusive: Potency [1] 0.662 µM [cytotoxic, full curve, poor fit] | Potency [2] 10.5 µM [cytotoxic, partial curve, poor fit] | Potency [6] 20.9 µM [cytotoxic, partial curve] | Potency [7] 11.8 µM [cytotoxic, partial curve, poor fit]

O=C(O)C1=NC(C(=O)O)CC(C=CN2c3cc(O)c(OC4OC(CO)C(O)C(O)C4O)cc3CC2C(=O)O)=C1 (configuration not stated)
inactive: viability [4] 117%
inconclusive: Potency [1] 9.35 µM [cytotoxic, single point] | Potency [2] 0.0019 µM [cytotoxic, full curve, poor fit] | Potency [3] 18.7 µM [cytotoxic, partial curve, poor fit] | Potency [5] 14.8 µM [cytotoxic, partial curve, poor fit] | Potency [6] 0.0012 µM [rising, full curve, poor fit] | Potency [8] 0.0023 µM [rising, full curve, poor fit]

C[C@@H]1CCO[C@H]2Cn3cc(C(=O)NCc4ccc(F)cc4F)c(=O)c(O)c3C(=O)N12
inconclusive: Potency [1] 33.2 µM [cytotoxic, single point] | Potency [2] 23.5 µM [cytotoxic, partial curve, poor fit] | Potency [9] 33.2 µM [cytotoxic, single point] | Potency [5] 33.2 µM [cytotoxic, single point] | Potency [6] 29.6 µM [cytotoxic, single point] | Potency [8] 0.0047 µM [rising, full curve, poor fit]

CCCCCCCCCCCCCC(=O)N[C@H](CO)[C@H](O)c1ccc([N+](=O)[O-])cc1
inactive: Potency [5]
inconclusive: Potency [1] 29.6 µM [cytotoxic, single point] | Potency [3] 1.18 µM [cytotoxic, full curve, poor fit]

O=C(O)C1=CO[C@@H](O[C@@H]2O[C@H](CO)[C@H](O)[C@H](O)[C@H]2O)[C@@H]2C(CO)=CC[C@H]12
inactive: Potency [2] | Potency [9] | Potency [8]
inconclusive: Potency [1] 4.69 µM [cytotoxic, full curve, poor fit] | Potency [3] 18.7 µM [cytotoxic, partial curve, poor fit]

C[C@@H](NCCCc1cccc(C(F)(F)F)c1)c1cccc2ccccc12
inconclusive: Potency [2] 0.0012 µM [rising, full curve, poor fit] | Potency [9] 0.0019 µM [rising, full curve, poor fit] | Potency [7] 20.9 µM [cytotoxic, single point] | Potency [8] 0.0033 µM [rising, full curve, poor fit]
inactive: Potency [1] | Potency [3] | Potency [6]

Cc1ccc(Nc2cc(-c3cccc(N4C(=O)c5ccccc5C4=O)c3)ncn2)cc1NS(C)(=O)=O
active: Potency [5] 23.5 µM
inconclusive: Potency [1] 20.9 µM [cytotoxic, partial curve, poor fit] | Potency [2] 14.8 µM [cytotoxic, partial curve, poor fit] | Potency [4] 16.6 µM [cytotoxic, partial curve, poor fit]

Fetched by compound from the list above, two records:
C[C@@H]1CCO[C@H]2Cn3cc(C(=O)NCc4ccc(F)cc4F)c(=O)c(O)c3C(=O)N12
inconclusive: Potency [1] 33.2 µM [cytotoxic, single point] | Potency [2] 23.5 µM [cytotoxic, partial curve, poor fit] | Potency [9] 33.2 µM [cytotoxic, single point] | Potency [5] 33.2 µM [cytotoxic, single point] | Potency [6] 29.6 µM [cytotoxic, single point] | Potency [8] 0.0047 µM [rising, full curve, poor fit]

NCC1CCC(C(=O)O)CC1 (configuration not stated)
active: Potency [5] 5.9 µM
inconclusive: Potency [2] 0.0526 µM [rising, full curve, poor fit] | Potency [3] 23.5 µM [cytotoxic, single point] | Potency [4] 4.18 µM [cytotoxic, full curve, poor fit] | Potency [7] 0.001 µM | Potency [8] 0.0066 µM [rising, full curve, poor fit]
inactive: Potency [1] | Potency [6]
